According to US9492434B2, “Combination compositions and methods of treatment” (University of Florida Research Foundation, Inc., priority 2011, dated 2016):
At least one compound was matched to its structure with a doubt left.

Key:
Assay type in all cases: cell-based, human
[1] = test system: 231/E-GFP cell line (MDA-MB-231 cells stably expressing E-Cad-GFP); assay: Fluorescence microscopy of E-Cad-GFP localization in 231/E-Cad-GFP cells; conditions: 72 hrs, 100 nM Dexamethasone, 10 nM Largazole, or both (FIG. 3A)
Experimental: Fluorescence and immunofluorescence microscopy were performed essentially as described previously (Corsino et al 2008) employing antibodies to E-Cadherin (610182; BD Bioscience) and γ-Catenin (138500; Invitrogen, Carlsbad, Calif.).
The 231/E-GFP cell line was treated with a series of small molecule signaling agonists and antagonists to identify compounds that modulate E-Cadherin localization within the cell. […] Changes in E-Cadherin localization partially overlapped with changes in γ-Catenin localization. In vitro invasion assays were performed to determine the respective effects of E-Cadherin expression and Dex.+Larg. treatment on the invasiveness of MDA-MB-231 cells.
FIG. 3. Dexamethasone and Largazole cooperate to suppress invasion and to restore E-Cadherin localization to the cell periphery. A. Fluorescence (E-Cad-GFP) or immunofluorescence microscopy (γ-Catenin (γ-Cat.)) of 231/E-Cad-GFP cells treated for 72 hrs with Vehicle (Control), 100 nM Dexamethasone, 10 nM Largazole, or 100 nM Dexamethasone+10 nM Largazole (Dex.+Larg.). […] BT549 cells were treated and analyzed by immunofluorescence microscopy as in FIG. 3A. D. BT549 cells were treated as described in FIG. 3A and analyzed for invasion as outlined in FIG. 3B.

BT549 cells [2] = conditions: 72 hrs; 100 nM Dexamethasone, 10 nM Largazole, or both (FIG. 3D)
[3] = test system: cellular protein tyrosine phosphorylation; assay: Anti-phosphotyrosine immunoblot / immunoprecipitation of MDA-MB-231 cell lysates; conditions: 100 nM Dexamethasone for 72 h vs vehicle (DMSO); colloidal coomassie
[4] = test system: E-Cadherin-containing complexes; assay: GST pulldown (glutathione-agarose) of E-Cadherin complexes from 231/E-Cad-GST cells, immunoblot; conditions: 72 hrs
Experimental: Cells were subjected to hypotonic lysis and membrane fractions were isolated by centrifugation for one hour at 100,000×g. The pellet was solubilized by sonication in buffer containing 2% Triton X100, 20 mM HEPES (pH 7.4), 1 mM EDTA, 1 mM EGTA, 0.1% β-mercaptoethanol, 5% glycerol, 10 nM microcystin, 200 μM Na3VO4, and 40 mM Na2H2P2O7. The membrane extract was centrifuged for one hour at 100,000×g, and the supernatant was used for E-Cadherin purifications. Complexes containing E-Cad-GST were isolated using glutathione-agarose (G4510; Sigma-Aldrich, St. Louis, Mo.), washed, and either eluted with 5 mM glutathione or eluted by boiling in SDS-PAGE sample buffer. […]
FIG. 6. […] A. Crude lysates (left panel) or GST pulldowns (right panel) from 231/E-Cad-GST cells treated for 72 hrs with 100 nM Dexamethasone, 10 nM Largazole, or Dex.+Larg. were analyzed by immunoblot. […] The cells were then treated as indicated for 72 hrs with or without Dex.+Larg. γ-Catenin- and E-Cadherin containing complexes were isolated by sequential TALON and glutathione-agarose chromatography and analyzed by immunoblot. […]

BT549 cells [5] = assay: Immunofluorescence microscopy of endogenous E-Cadherin in BT549 cells; conditions: RU486 added to Dex. and Larg. (FIG. 3C)

Row | Compound | E-Cadherin localization to the cell-cell periphery [1] | invasion of BT549 cells in vitro (BT549 cells [2]) | tyrosine phosphorylated protein doublet of approximately 80 kDa in 4G10 immunoprecipitates [3] | cCDCP1 binding to E-Cadherin ([4]; 100 nM Dexamethasone (FIG. 6A)) | γ-Catenin binding to E-Cadherin ([4]; 100 nM Dexamethasone or 10 nM Largazole (FIG. 6A)) | reversal of Dex. and Larg. effects on E-Cadherin junctional localization (BT549 cells [5])
1 | C[C@@H]1C[C@H]2[C@@H]3CCC4=CC(=O)C=C[C@]4(C)[C@@]3(F)[C@@H](O)C[C@]2(C)[C@@]1(O)C(=O)CO [Dexamethasone] | modestly increased E-Cadherin localization to the cell-cell periphery | suppressed the invasion of BT549 cells in vitro | not in cells treated with 100 nM Dexamethasone | decreased cCDCP1 binding to E-Cadherin | did not increase γ-Catenin binding to E-Cadherin | –
2 | CC#C[C@]1(O)CC[C@H]2[C@@H]3CCC4=CC(=O)CCC4=C3[C@@H](c3ccc(N(C)C)cc3)C[C@@]21C [RU486] | – | – | – | – | – | partially reversed
